Source: paper doi:10.1101/2022.09.15.508097
No constants are given. Whether binding was seen depends on the method and setting. Some binding calls cover weakened binding; strength is not graded here. For some of these results: Where a sequence is shown, tags or fusion partners need not be part of it.

Sequences of proteins named here, by UniProt entry; tags and fusion partners are left off. A change or cut given only in a name is not applied to a line headed by its entry.
UniProt P83916: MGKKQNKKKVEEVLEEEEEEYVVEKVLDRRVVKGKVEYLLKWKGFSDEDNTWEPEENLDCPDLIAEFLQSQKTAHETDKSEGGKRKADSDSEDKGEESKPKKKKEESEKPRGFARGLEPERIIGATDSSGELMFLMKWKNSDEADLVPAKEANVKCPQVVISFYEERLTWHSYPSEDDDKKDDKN
UniProt Q96KQ7: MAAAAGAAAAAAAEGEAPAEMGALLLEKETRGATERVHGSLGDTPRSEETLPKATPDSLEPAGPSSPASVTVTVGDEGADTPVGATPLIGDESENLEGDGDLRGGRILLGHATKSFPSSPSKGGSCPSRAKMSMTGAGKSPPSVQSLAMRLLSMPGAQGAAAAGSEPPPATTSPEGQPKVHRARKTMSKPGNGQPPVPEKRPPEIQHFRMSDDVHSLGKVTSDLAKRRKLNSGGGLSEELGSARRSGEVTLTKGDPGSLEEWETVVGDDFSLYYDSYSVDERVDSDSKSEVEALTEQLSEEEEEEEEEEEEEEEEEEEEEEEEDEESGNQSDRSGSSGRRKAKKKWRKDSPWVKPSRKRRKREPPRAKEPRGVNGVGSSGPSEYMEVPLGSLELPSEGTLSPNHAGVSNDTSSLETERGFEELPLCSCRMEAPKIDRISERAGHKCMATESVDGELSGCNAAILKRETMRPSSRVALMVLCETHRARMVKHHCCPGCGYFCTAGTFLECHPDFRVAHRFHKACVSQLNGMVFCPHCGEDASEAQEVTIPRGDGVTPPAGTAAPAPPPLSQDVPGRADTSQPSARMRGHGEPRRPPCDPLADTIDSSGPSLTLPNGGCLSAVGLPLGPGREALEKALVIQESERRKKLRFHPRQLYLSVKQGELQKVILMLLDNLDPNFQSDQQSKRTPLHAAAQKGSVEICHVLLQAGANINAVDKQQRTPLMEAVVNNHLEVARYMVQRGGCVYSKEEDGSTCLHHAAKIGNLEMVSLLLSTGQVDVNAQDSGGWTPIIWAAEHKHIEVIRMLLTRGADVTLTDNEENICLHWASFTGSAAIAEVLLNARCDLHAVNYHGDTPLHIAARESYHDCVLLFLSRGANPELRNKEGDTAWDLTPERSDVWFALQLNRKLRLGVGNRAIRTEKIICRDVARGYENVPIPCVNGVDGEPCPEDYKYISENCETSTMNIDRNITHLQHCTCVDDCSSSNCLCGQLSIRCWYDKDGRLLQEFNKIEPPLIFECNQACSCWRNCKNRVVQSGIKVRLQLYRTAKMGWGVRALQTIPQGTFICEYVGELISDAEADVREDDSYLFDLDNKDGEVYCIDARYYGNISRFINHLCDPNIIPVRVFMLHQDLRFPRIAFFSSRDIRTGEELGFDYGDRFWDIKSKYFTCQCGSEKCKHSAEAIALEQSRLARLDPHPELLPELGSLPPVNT

How the values were obtained:
Test in all cases: fluorescence microscopy-based interaction-trap
[1] = target: T1, TetR-EYFP-ZNF518B^344–769 (human) (UniProt Q9C0D4)
T1 sequence: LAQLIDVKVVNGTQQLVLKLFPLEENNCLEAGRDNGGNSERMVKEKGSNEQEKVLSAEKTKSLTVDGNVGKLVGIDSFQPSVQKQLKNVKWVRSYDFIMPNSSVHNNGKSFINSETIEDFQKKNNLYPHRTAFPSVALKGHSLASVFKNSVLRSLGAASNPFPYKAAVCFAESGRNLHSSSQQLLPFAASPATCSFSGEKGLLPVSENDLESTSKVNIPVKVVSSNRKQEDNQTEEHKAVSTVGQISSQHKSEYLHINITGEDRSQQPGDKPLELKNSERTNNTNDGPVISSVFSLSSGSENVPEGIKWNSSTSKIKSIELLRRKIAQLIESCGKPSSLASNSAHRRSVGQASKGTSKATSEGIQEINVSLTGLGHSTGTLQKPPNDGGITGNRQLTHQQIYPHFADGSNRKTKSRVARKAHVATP

[2] = target: T2, TetR-EYFP-ZNF518B^555–769 (human) (UniProt Q9C0D4)
T2 sequence: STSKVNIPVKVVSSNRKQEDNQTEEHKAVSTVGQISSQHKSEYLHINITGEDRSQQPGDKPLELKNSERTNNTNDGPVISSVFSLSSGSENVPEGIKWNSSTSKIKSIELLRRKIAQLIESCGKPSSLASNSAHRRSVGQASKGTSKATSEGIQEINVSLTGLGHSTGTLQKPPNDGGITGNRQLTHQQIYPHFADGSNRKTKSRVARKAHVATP

[3] = target: TetR-EYFP-ZNF518B^344–1074 (human) (UniProt Q9C0D4)
[4] = target: TetR-EYFP-ZNF518B^344–987 (human) (UniProt Q9C0D4)
[5] = target: TetR-EYFP-ZNF518B^555–1074 (human) (UniProt Q9C0D4)
[6] = target: TetR-EYFP-ZNF518B^770–987 (human) (UniProt Q9C0D4)
[7] = target: TetR-EYFP-ZNF518B^878–1074 (human) (UniProt Q9C0D4)
[8] = target: TetR-EYFP-ZNF518B^878–987 (human) (UniProt Q9C0D4)
[9] = target: T3, TetR-EYFP-ZNF518A^WT (human) (UniProt Q6AHZ1)
T3 sequence: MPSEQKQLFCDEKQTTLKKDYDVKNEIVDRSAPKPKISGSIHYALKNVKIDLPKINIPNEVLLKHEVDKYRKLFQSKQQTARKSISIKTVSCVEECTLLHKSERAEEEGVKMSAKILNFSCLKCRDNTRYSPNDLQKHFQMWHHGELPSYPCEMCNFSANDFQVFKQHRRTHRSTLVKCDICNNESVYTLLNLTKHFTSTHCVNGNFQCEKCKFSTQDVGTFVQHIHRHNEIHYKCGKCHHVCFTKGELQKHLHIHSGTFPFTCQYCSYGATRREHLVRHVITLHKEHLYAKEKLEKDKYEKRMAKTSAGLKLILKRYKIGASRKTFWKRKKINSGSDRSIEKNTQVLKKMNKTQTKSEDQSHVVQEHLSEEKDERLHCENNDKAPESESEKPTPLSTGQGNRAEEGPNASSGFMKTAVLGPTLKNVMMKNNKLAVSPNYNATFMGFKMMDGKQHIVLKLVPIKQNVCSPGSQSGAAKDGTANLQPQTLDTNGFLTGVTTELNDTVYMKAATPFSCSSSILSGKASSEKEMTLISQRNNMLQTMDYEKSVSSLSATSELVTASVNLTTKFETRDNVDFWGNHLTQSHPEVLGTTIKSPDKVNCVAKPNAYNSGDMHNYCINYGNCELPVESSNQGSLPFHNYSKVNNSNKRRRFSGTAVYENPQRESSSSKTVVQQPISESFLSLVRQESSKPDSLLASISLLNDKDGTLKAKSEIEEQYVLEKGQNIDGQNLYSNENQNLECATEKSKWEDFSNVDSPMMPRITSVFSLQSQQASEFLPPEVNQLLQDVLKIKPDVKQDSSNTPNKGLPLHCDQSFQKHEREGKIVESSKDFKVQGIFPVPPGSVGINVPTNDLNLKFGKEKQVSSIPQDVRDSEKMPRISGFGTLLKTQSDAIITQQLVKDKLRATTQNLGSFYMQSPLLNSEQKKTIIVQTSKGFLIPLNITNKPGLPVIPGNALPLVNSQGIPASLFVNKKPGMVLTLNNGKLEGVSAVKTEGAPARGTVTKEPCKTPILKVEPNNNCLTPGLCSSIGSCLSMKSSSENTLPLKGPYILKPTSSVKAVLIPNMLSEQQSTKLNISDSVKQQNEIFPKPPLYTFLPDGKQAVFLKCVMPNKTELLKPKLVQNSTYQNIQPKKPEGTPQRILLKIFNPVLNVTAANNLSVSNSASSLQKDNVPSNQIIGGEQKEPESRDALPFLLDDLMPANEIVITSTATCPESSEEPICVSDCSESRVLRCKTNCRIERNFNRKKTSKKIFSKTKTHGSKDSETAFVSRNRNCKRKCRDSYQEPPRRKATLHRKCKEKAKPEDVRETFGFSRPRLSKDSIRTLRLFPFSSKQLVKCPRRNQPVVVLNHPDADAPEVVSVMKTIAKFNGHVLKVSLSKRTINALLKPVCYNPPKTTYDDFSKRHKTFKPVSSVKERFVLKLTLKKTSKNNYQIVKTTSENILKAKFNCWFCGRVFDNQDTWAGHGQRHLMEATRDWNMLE

[10] = target: TetR-EYFP-ZNF518B^WT (human) (UniProt Q9C0D4)

Halo-HP1β (from UniProt P83916 1-185)
binding [1]: binds weakly | binding [2]: binds weakly

Halo-HP1β^(1–92), chromo domain (from UniProt P83916 1-92) (domain or fragment)
binding [3]: no binding | binding [4]: no binding | binding [5]: no binding | binding [6]: no binding | binding [7]: no binding | binding [8]: no binding

Halo-HP1β^93–185, chromo-shadow domain (from UniProt P83916 93-185) (domain or fragment)
binding [3]: binds | binding [4]: binds | binding [5]: binds | binding [6]: binds | binding [7]: binds | binding [8]: binds

Halo-G9a^291–1210 (from UniProt Q96KQ7 291-1210) (domain or fragment)
binding [9]: binds | binding [10]: binds

Halo-G9a^291–545 (from UniProt Q96KQ7 291-545) (domain or fragment)
binding [9]: binds | binding [10]: binds

Halo-G9a^1–290 (from UniProt Q96KQ7 1-290) (domain or fragment)
binding [9]: no binding | binding [10]: no binding

Halo-G9a^1–545 (from UniProt Q96KQ7 1-545) (domain or fragment)
binding [9]: binds | binding [10]: binds
